Substitutions are numbered along the chain they refer to. Names and notes keep the numbering of the source. These are yes or no findings as the source states them, for the method shown. Some results given as binding are weak or reduced against the parent protein; the word gives no strength. Where a sequence is shown, tags or fusion partners need not be part of it.
B1: Cas1 (wild type, Escherichia coli type I-E) (protein, UniProt Q46896 1-305)
chain: MTWLPLNPIPLKDRVSMIFLQYGQIDVIDGAFVLIDKTGIRTHIPVGSVACIMLEPGTRVSHAAVRLAAQVGTLLVWVGEAGVRVYASGQPGGARSDKLLYQAKLALDEDLRLKVVRKMFELRFGEPAPARRSVEQLRGIEGSRVRATYALLAKQYGVTWNGRRYDPKDWEKGDTINQCISAATSCLYGVTEAAILAAGYAPAIGFVHTGKPLSFVYDIADIIKFDTVVPKAFEIARRNPGEPDREVRLACRDIFRSSKTLAKLIPLIEDVLAAGEIQPPAPPEDAQPVAIPLPVSLGDAGHRSS
B2: Cas1 Penta-mutant (5M - Q24H, P202Q, G241D, E276D, L297Q) (protein, UniProt Q46896 1-305)
chain: B1 chain with Q24H, P202Q, G241D, E276D, L297Q
B3: Cas1 with deletion of the C-terminal tail (ΔC - ΔP279-S305) (domain or fragment, UniProt Q46896 1-278)
chain: MTWLPLNPIPLKDRVSMIFLQYGQIDVIDGAFVLIDKTGIRTHIPVGSVACIMLEPGTRVSHAAVRLAAQVGTLLVWVGEAGVRVYASGQPGGARSDKLLYQAKLALDEDLRLKVVRKMFELRFGEPAPARRSVEQLRGIEGSRVRATYALLAKQYGVTWNGRRYDPKDWEKGDTINQCISAATSCLYGVTEAAILAAGYAPAIGFVHTGKPLSFVYDIADIIKFDTVVPKAFEIARRNPGEPDREVRLACRDIFRSSKTLAKLIPLIEDVLAAGEIQ
B4: Cas1 with alanine substitution at tyrosine 22 (Y22A) (protein, UniProt Q46896 1-305)
chain: B1 chain with Y22A

Biological target: T1, Cas2 with C-terminal 6X Histidine tag (Escherichia coli type I-E) (Escherichia coli) (UniProt P45956)
T1 sequence: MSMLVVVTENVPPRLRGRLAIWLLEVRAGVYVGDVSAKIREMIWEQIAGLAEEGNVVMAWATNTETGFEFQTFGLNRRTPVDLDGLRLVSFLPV
Test: co-purification

Row | Binder | binding
1 | B1 | binds
2 | B2 | binds
3 | B3 | binds
4 | B4 | binds

— publication doi:10.1101/602623
